One substance from publication PMC5784528 can be followed below.

Assay [1] deals with T1, flag-tagged DUSP6 truncation mutant 150-205aa (linker region) (human) (UniProt Q16828).
T1 sequence: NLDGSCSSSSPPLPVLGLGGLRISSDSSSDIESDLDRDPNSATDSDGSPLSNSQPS
As to the kind of experiment: co-IP; flag-tagged DUSP6 (full length or truncation mutant) co-expressed with HA-tagged PKN2 (0, 3 and 6 μg) in 293 T cells; immunoprecipitated by anti-flag antibody, 4 °C overnight, protein A/G agarose beads; western blot. On the technique in general: In western blotting, separated proteins are transferred to a membrane and probed.

In assay [2] the target is T2, flag-tagged full-length wild-type DUSP6 (DUSP6-WT-flag) (human) (UniProt Q16828).
T2 sequence: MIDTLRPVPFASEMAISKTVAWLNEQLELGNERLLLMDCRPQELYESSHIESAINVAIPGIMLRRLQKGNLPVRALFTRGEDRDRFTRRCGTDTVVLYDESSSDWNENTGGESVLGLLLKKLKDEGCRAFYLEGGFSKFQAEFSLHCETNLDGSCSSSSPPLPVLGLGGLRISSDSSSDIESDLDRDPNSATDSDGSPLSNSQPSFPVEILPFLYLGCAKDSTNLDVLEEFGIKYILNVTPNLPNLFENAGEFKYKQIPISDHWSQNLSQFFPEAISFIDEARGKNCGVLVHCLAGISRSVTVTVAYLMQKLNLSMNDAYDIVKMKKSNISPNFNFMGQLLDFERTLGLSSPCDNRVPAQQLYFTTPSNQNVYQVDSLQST
The assay is described as above.

Results are given in words; binding and its absence hold for the method and conditions named. In cells and extracts the contact can be indirect. Binding calls can cover weak binding; strength is not graded here. Where a sequence is shown, tags or fusion partners need not be part of it.

For “HA-tagged wild-type PKN2 (PKN2-WT-HA) (human)”, the binding result in assay [1] and in assay [2] was “binds” each time.
